# According to patent US5424290A, “Biologically active peptides and uses therefor” (Magainin Pharmaceuticals Inc., priority 1992, dated 1995):
# Part of at least one peptide drawing is inferred or uncertain, most often the ends. Non-standard residues stand in square brackets, D forms with d. Residues, ends and D or L forms follow the SMILES beside them. hArg = N=C(N)NCCCC[C@H](N)C(=O)O; hSer = N[C@@H](CCO)C(=O)O; Nle = CCCC[C@H](N)C(=O)O
# Experiments:
# Format in all cases: cell-based
# E. coli ATCC 25922 = assay: Minimal Inhibitory Concentration, microtiter broth dilution antibacterial assay; conditions: Mueller Hinton broth, 16-20 hours at 37° C., lowest concentration giving a clear well
# Text: (§1) Table I, which follows, indicates the Minimal Inhibitory Concentration (MIC) in μg/ml of Peptides (SEQ ID NO:1) through (SEQ ID NO:4), (SEQ ID NO:6) through (SEQ ID NO:13), (SEQ ID NO:16), (SEQ ID NO:20), (SEQ ID NO:21) and (SEQ ID NO:23) against S. aureus strain ATCC 25923, P. aeruginosa strain ATCC 27853, E. coli strain 25922, and Candida albicans. The procedure for the antibacterial assay is based upon the guidelines of the National Committee for Clinical Laboratory Standards, Document M7-T2, Volume 8, No. 8, 1988. Stock solutions of the peptides hereinabove mentioned are prepared at a concentration of 512 μg/ml in sterile deionized distilled water and stored at […]. Each peptide is a C-terminal amide and may or may not be acetylated at the N-terminus. An acetyl group at the N-terminus is indicated by an X. The stock peptide solution is diluted in serial dilutions (1:2) down the wells of a microtiter plate so that the final concentrations of peptides in the wells are 0.25, 0.50, 1, 2, 4, 8, 16, 32, 64, 128, and 256 μg/ml. 1-5×10^5 CFUs/ml of either S. aureus ATCC 25923, E. coli ATCC 25922, P. aeruginosa ATCC 27853, or Candida albicans were added to the wells in full strength Mueller Hinton broth (BBL 11443) from a mid-log culture. The inoculum is standardized spectrophotometrically at 600 nm and is verified by colony counts. The plates are incubated for 16-20 hours at 37° C., and the minimal inhibitory concentration (MIC) for each peptide is determined. Minimal inhibitory concentration is defined as the lowest concentration of peptide which produces a clear well in the microtiter plate.
# [1] = test system: P. aeruginosa strain ATCC 27853; assay: as above; conditions: P. aeruginosa ATCC 27853; Mueller Hinton broth; 16-20 hours at 37° C.; lowest concentration giving a clear well
# Text: as §1
# [2] = test system: S. aureus strain ATCC 25923; assay: as above; conditions: S. aureus ATCC 25923; Mueller Hinton broth; 16-20 hours at 37° C.; lowest concentration giving a clear well
# Text: as §1
# Candida albicans = assay: Minimal Inhibitory Concentration, microtiter broth dilution assay; conditions: Mueller Hinton broth, 16-20 hours at 37° C., lowest concentration giving a clear well
# Text: as §1
Compound,Minimal Inhibitory Concentration E. coli (E. coli ATCC 25922) [µg/mL],Minimal Inhibitory Concentration P. aeruginosa [1] [µg/mL],Minimal Inhibitory Concentration S. aureus [2] [µg/mL],Minimal Inhibitory Concentration C. albicans (Candida albicans) [µg/mL]
CCCC[C@H](NC(=O)[C@@H](NC(=O)[C@H](CCCCN)NC(=O)[C@@H](NC(=O)[C@H](Cc1ccccc1)NC(=O)[C@H](C)NC(=O)[C@H](CCCCN)NC(=O)CNC(=O)[C@H](Cc1ccccc1)NC(=O)[C@H](CCCCN)NC(=O)[C@H](CCCCN)NC(=O)[C@H](C)NC(=O)[C@H](CCCCN)NC(=O)[C@H](CCCCN)NC(=O)[C@H](CC(C)C)NC(=O)[C@H](Cc1ccccc1)NC(=O)[C@H](CCCCN)NC(=O)CNC(=O)[C@@H](NC(=O)CN)[C@@H](C)CC)C(C)C)[C@@H](C)CC)C(=O)N[C@@H](CCCCN)C(=O)N[C@@H](CCCCN)C(N)=O [(SEQ ID NO: 7)-NH2] (H-GIGKFLKKAKKFGKAFVKI[Nle]KK-NH2),16,8,16,–
CC[C@H](C)[C@H](NC(=O)CN)C(=O)NCC(=O)N[C@@H](CCCCN)C(=O)N[C@@H](Cc1ccccc1)C(=O)N[C@@H](CC(C)C)C(=O)N[C@@H](CCCCN)C(=O)N[C@@H](CCCCN)C(=O)N[C@@H](C)C(=O)N[C@@H](CCCCN)C(=O)N[C@@H](CCCCN)C(=O)N[C@@H](Cc1ccccc1)C(=O)NCC(=O)N[C@@H](CCCCN)C(=O)N[C@@H](C)C(=O)N[C@@H](Cc1ccccc1)C(=O)N[C@H](C(=O)N[C@@H](CCCCN)C(=O)N[C@H](C(=O)N[C@@H](CC(C)C)C(=O)N[C@@H](CCCCN)C(=O)N[C@@H](CCCCN)C(=O)N[C@@H](CCO)C(N)=O)[C@@H](C)CC)C(C)C [(SEQ ID NO: 10)-NH2] (H-GIGKFLKKAKKFGKAFVKILKK[hSer]-NH2),–,–,16,64
CC[C@H](C)[C@H](NC(=O)CN)C(=O)NCC(=O)N[C@@H](CCCCN)C(=O)N[C@@H](Cc1ccccc1)C(=O)N[C@@H](CC(C)C)C(=O)N[C@@H](CCCCN)C(=O)N[C@@H](CCCCN)C(=O)N[C@@H](C)C(=O)N[C@@H](CCCCN)C(=O)N[C@@H](CCCCN)C(=O)N[C@@H](Cc1ccccc1)C(=O)NCC(=O)N[C@@H](CCCCNC(=N)N)C(=O)N[C@@H](C)C(=O)N[C@@H](Cc1ccccc1)C(=O)N[C@H](C(=O)N[C@@H](CCCCN)C(=O)N[C@H](C(=O)N[C@@H](CC(C)C)C(=O)N[C@@H](CCCCN)C(=O)N[C@@H](CCCCN)C(N)=O)[C@@H](C)CC)C(C)C [(SEQ ID NO: 20)-NH2] (H-GIGKFLKKAKKFG[hArg]AFVKILKK-NH2),–,–,–,128
CC[C@H](C)[C@H](NC(=O)CN)C(=O)NCC(=O)N[C@@H](CCCCN)C(=O)N[C@@H](Cc1ccccc1)C(=O)N[C@@H](CC(C)C)C(=O)N[C@@H](CCCCN)C(=O)N[C@@H](CCCCN)C(=O)N[C@@H](C)C(=O)N[C@@H](CCCCN)C(=O)N[C@@H](CCCCN)C(=O)N[C@@H](Cc1ccccc1)C(=O)NCC(=O)N[C@@H](CCCCN)C(=O)N[C@@H](C)C(=O)N[C@@H](Cc1ccccc1)C(=O)N[C@H](C(=O)N[C@@H](CCCCN)C(=O)N[C@H](C(=O)N[C@@H](CC(C)C)C(=O)N[C@@H](CCCCN)C(=O)N[C@@H](CCO)C(N)=O)[C@@H](C)CC)C(C)C [(SEQ ID NO: 21)-NH2] (H-GIGKFLKKAKKFGKAFVKILK[hSer]-NH2),4,4,16,64
